From paper PMC4740771, “Nucleotide-dependent assembly of the peroxisomal receptor export complex” (Scientific Reports, 2016)
Residue numbers refer to the chain shown, from its start. No constants are given. Whether binding was seen depends on the method and setting. Some results given as binding are weak or reduced against the parent protein; the word gives no strength. Tags and fused reporters may be left off the sequences shown.

How the values were obtained:
[1] = biological target: T1, HisPex1p released from HisPex1pGST by thrombin (S. cerevisiae) (UniProt P24004); assay: SEC; complexes of wild-type or Walker B mutant Pex1p with Pex6p purified by tandem affinity chromatography and size exclusion chromatography; nucleotide not stated for this experiment; both purified
T1 sequence: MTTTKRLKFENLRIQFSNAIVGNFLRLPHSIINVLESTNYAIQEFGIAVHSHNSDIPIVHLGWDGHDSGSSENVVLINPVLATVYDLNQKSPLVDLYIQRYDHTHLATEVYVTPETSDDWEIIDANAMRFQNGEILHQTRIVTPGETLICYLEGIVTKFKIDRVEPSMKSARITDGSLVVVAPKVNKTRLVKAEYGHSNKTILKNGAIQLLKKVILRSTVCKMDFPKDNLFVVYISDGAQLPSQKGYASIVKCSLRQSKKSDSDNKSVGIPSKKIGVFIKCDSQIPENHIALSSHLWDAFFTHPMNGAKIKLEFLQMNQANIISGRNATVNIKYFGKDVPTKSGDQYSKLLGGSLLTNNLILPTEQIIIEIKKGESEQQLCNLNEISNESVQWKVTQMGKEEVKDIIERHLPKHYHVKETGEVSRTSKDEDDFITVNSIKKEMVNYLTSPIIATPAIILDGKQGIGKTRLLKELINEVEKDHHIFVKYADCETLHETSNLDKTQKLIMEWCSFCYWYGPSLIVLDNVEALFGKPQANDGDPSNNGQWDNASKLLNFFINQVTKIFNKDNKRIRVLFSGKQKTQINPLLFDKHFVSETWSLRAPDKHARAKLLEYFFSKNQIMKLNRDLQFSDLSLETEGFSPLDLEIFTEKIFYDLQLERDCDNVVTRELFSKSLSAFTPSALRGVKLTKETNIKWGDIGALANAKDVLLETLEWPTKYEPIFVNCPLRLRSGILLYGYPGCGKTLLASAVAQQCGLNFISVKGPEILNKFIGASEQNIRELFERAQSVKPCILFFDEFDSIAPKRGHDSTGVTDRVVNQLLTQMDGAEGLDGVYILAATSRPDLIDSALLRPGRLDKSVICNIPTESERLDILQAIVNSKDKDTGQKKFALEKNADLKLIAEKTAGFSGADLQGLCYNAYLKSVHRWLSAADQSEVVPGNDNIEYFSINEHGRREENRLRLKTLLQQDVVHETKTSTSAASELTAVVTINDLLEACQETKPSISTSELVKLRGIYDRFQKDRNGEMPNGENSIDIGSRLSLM

[2] = biological target: T2, HisPex1p(D797N) released from its GST fusion (S. cerevisiae) (UniProt P24004); assay: as above
T2 sequence: T1 sequence with D797N

B1: HisPex6p (natural protein, S. cerevisiae, UniProt P33760 1-1030, looked up)
chain: MKASLTFSLSGIYAPCSISRDIYLEYGDKKAECLYGTIRLPQYGPGCTPGKIVHCVLDDSLPFCSIVVPSKLFGFMPTQPTMDFCYFEPILDNVVPVLDSVTFLINEQLYSKLMDLPQEMQQIQFLHYKYNINSMETVVHSRDILTSGLCQILNCSPFPQGLVDFTETQLILVNDTEQKLSALKYANEDEEYALPKIGTNSALSIDLESLPCTISRDLLRPAPHINDDNSIYAFTDAETLLRLDVTSGSFITVSNMGCVRLVKLFVLLLPNGFKKRTIYAPPKIIASFPDCSVVTISKSNIGHTDIPIANQVFISRVGGWLQSQKCFQNIILTTLKKFFSESKRILCQNDLIPIAFDSSMADLNIAEENDESDDEDELGQYYKNDSLVWFFVTSAELDCFSKDNSHFIIDPNRTKLITTNITNRRPLPLSRSNLQRYYGFAETFYYDLHIFPYVRQLVNILETSFNCSQRGITLNASVLLHSTTNNVGKATMVRFASKYLGIHLLEIDCLSLTSNSRQLDSTSKIIGYIRAKCENVLPYASPAVIFLAHLDSILLDVNANQDPEAIKLQKSINFEMSKLLDDFTFKFPGTTFVGSVNNIDNVPSSFRSHMRFEILVPVPSEAQRLRIFQWYLSSHELNRDVQQKVPVSYMDNISFSSLSSYSAGLTPLDIKSIVETARMTATARFYQESKKCGWLPQSILITQEDLSKATSKARNEFSVSIGAPQIPNVTWDDIGGIDFVKGEILDTIDMPLKHPELFTSGMKKRSGILFYGPPGTGKTLMAKAIATNFSLNFFSVKGPELLNMYIGESEANVRRVFQKAREAKPCVIFFDEIDSVAPKRGNQGDSGGVMDRIVSQLLAELDGMSTDADGVFVIGATNRPDLLDEALLRPGRFDKLLYLGIPDTDTKQLNILEALTRKFVLDNDVKLIELAKLCPFNYTGADFYALCSDAMLNAMSRIARMVEKKVSQHNELTGENISTRRWFDKIATKEDTKVVVKMEDFLKAQEQLTPSVSRAELNHYEAVRANFEGA
notes: Pex6p, type II AAA-ATPase peroxin of yeast; also called single Pex6p; isolated Pex6p; source: E. coli Tuner (DE3), purified (NiNTA-agarose; with HisPex1pGST also GSH-agarose and size exclusion); not shown: His6, N-terminal, kept
binding [1]: binds
binding [2]: binds
